The assay deals with B6C3F1 mice, B16 melanoma ip, median survival T/C. Nature of the assay: NCI In Vivo Anticancer Drug Screen. Data for tumor model B16 Melanoma (intraperitoneal) in B6C3F1 mice. The conditions noted are these: T/C endpoint: median survival time, schedule: Q01DX009 (ip), vehicle: saline, higher T/C = longer survival. As for the experimental part:
The antitumor activity of compounds was measured in mice bearing transplantable tumors. Survival or tumor size were measured and the results are expressed as the measurement made in the treated group (T) divided by the measurement made in the vehicle treated control group (C). The tumor model used in this assay is B16 Melanoma (intraperitoneal) in B6C3F1 mice

The list is a part of this screen's results and no random one: it gathers some chemical classes. Not every dose and run of a compound is shown. T/C gives the treated animals as a percentage of the vehicle group. For survival time, the PubChem record calls one and a half times the control and up active, and a quarter to a half above the control has no call in these data; cut-offs in other NCI protocols can differ. Schedule codes are those of the source, read here as Q, the interval in days (D) or hours (H), X, the number of doses.

For the compound `CN(CCCl)CCCl`, the T/C reads like this: (dose: 0.06 mg/kg/injection) 109 % of control; (dose: 0.12 mg/kg/injection) 134 % of control; (dose: 0.25 mg/kg/injection) 154 % of control; (dose: 0.5 mg/kg/injection) 189 % of control; (dose: 1.0 mg/kg/injection) 227 % of control.

These data come from PubChem BioAssay AID200 (DTP/NCI, 2004).
